From article PMC12483566
No constants are given. Whether binding was seen depends on the method and setting. In cells and extracts the contact can be indirect. Some entries that bind do so weakly or less than the wild type. Tags and fused reporters may be left off the sequences shown.

Legend:
[1] = molecular target: mitochondrial thioredoxin reductase-2 (TXNRD2), V5-tagged, wild type (human) (UniProt Q9NNW7); assay: condition: only cells treated with erastin (2.5 μM, 18 hours); co-IP; HT-1080 cells overexpressing TXNRD2 and TXN2 treated with erastin (2.5 μM, 18 hours) without CoA; lysed in NEM buffer
[2] = molecular target: mitochondrial thioredoxin reductase-2 (TXNRD2), V5-tagged, wild type (human) (UniProt Q9NNW7); assay: co-IP; HT-1080 cells overexpressing TXNRD2 (V5-tagged) and TXN2 (Myc-tagged); TXNRD2 immunoprecipitated with anti-V5 beads, TXN2 detected with anti-Myc; cells untreated, with CoA (100 μM, 18 hours), or with erastin plus CoA; lysed in NEM buffer

binding [1]: no binding
binding [2]: binds
B1: mitochondrial thioredoxin 2 (TXN2), Myc-tagged (protein, UniProt Q99757 60-166)
chain: TTFNIQDGPDFQDRVVNSETPVVVDFHAQWCGPCKILGPRLEKMVAKQHGKVVMAKVDIDDHTDLAIEYEVSAVPTVLAMKNGDVVDKFVGIKDEDQLEAFLKKLIG
